Reference: US4470971A (Merck & Co., Inc., priority 1982, dated 1984)

Assay: peptide synthesis
Details: whole synthesis, TLC

## N-Isobutyryl-L-histidyl-L-prolyl-L-phenylalanyl-L-histidyl-(3S,4S)-statyl-L-valyl-L-histidyl-L-glycyl amide
  final HPLC purity: Greater than 99% single peak
